These results are taken from publication PMC5964327.

Amino acid sequences for entries named in this document (tags omitted). A change or cut given only in a name is not applied to a line headed by its entry.
UniProt Q6ZWH5: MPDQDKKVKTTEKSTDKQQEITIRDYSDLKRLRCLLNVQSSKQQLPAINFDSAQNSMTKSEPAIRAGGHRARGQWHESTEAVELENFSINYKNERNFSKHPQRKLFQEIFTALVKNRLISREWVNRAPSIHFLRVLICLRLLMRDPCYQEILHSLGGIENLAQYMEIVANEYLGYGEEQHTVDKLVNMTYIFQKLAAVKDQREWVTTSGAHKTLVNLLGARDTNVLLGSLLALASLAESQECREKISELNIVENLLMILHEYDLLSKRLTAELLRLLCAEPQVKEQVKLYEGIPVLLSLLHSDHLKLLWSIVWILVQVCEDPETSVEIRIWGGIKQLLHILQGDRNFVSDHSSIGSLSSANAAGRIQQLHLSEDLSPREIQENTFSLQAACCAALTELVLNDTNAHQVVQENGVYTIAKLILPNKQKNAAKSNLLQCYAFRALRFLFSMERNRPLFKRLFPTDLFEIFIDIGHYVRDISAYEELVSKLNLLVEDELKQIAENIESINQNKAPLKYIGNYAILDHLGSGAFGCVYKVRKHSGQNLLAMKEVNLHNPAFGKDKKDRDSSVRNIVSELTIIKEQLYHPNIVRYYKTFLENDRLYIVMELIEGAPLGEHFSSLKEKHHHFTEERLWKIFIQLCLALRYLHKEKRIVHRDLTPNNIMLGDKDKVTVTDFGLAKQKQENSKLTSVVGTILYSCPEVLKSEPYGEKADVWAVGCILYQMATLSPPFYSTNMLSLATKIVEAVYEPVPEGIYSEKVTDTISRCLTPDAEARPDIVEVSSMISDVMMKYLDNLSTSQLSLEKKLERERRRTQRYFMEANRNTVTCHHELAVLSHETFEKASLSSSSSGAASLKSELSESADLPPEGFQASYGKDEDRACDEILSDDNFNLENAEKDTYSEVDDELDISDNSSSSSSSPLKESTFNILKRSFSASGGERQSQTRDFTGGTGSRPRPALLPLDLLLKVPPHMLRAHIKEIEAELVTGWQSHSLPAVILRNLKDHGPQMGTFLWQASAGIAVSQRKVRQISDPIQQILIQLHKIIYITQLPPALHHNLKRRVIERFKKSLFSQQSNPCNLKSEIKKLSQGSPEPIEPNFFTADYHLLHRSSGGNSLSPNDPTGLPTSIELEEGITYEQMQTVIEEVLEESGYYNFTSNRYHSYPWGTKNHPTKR
UniProt Q9UNE7: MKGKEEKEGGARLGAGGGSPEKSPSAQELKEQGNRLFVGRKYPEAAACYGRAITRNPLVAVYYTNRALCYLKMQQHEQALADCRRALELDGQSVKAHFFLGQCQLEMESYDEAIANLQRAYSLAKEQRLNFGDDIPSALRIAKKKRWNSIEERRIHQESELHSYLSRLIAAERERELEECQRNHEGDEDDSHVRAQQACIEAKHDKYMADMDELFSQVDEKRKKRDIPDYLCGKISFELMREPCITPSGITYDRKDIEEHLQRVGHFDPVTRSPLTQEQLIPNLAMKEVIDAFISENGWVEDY

This test has as its target NEK10-flag T812A mutant (human) (UniProt Q6ZWH5). The experiment in a line: co-IP; cells co-transfected with NEK10-flag (wild type or T812A), HSP70-V5 and CHIP-myc, or endogenous HSP70 and CHIP; anti-flag IP, control IgG; MG132 20 µM 8 h, or serum deprived 24 h and untreated or stimulated with FSK; immunoblot.

No constants are given. Whether binding was seen depends on the method and setting. Binding seen in cells or lysates may run through a third protein. Binding can be weak; no strength is given.

As for “CHIP-myc (wild type) (from UniProt Q9UNE7 1-303) (enzyme)”, the binding result is listed as “binds”.
